Results: publication PMC8339327
These are yes or no findings as the source states them, for the method shown. Binding seen in cells or lysates may run through a third protein.

Target: cyclin-B (human (endogenous in AGS))
Experiment: co-IP; AGS cell lysates, RASSF10 against cyclin-B, Cdk1 or NPM; also reverse co-IP; Western blot

binding: no binding
B1: RASSF10 (protein, UniProt A6NK89 1-507)
chain: MDPSEKKISVWICQEEKLVSGLSRRTTCSDVVRVLLEDGCRRRRRQRRSRRLGSAGDPHGPGELPEPPNEDDEDDDEALPQGMLCGPPQCYCIVEKWRGFERILPNKTRILRLWAAWGEEQENVRFVLVRSEASLPNAGPRSAEARVVLSRERPCPARGAPARPSLAMTQEKQRRVVRKAFRKLAKLNRRRQQQTPSSCSSTSSSTASSCSSSPRTHESASVERMETLVHLVLSQDHTIRQQVQRLHELDREIDHYEAKVHLDRMRRHGVNYVQDTYLVGAGIELDGSRPGEEPEEVAAEAEEAAAAPPLAGEAQAAALEELARRCDDLLRLQEQRVQQEELLERLSAEIQEELNQRWMRRRQEELAAREEPLEPDGGPDGELLLEQERVRTQLSTSLYIGLRLNTDLEAVKSDLDYSQQQWDSKKRELQGLLQTLHTLELTVAPDGAPGSGSPSREPGPQACADMWVDQARGLAKSGPGNDEDSDTGLSSMHSQDSDSLPMCESLV
